1 substance from paper PMC5133636 can be followed below.

Amino acid sequences for entries named in this document (tags omitted). Residues count along the entry.
UniProt Q91YI4: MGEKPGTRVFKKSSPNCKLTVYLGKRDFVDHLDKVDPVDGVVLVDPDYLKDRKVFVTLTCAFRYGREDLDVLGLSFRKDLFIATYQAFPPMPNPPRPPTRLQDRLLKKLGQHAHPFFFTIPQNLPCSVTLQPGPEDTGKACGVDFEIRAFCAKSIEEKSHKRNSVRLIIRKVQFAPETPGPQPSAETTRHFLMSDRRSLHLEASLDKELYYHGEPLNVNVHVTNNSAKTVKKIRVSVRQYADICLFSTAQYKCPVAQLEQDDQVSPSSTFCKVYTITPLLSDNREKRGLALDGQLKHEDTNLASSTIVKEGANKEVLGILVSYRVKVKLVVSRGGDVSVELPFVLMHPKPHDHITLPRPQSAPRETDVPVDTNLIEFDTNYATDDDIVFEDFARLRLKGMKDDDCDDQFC
UniProt P97772, residues 21-1199: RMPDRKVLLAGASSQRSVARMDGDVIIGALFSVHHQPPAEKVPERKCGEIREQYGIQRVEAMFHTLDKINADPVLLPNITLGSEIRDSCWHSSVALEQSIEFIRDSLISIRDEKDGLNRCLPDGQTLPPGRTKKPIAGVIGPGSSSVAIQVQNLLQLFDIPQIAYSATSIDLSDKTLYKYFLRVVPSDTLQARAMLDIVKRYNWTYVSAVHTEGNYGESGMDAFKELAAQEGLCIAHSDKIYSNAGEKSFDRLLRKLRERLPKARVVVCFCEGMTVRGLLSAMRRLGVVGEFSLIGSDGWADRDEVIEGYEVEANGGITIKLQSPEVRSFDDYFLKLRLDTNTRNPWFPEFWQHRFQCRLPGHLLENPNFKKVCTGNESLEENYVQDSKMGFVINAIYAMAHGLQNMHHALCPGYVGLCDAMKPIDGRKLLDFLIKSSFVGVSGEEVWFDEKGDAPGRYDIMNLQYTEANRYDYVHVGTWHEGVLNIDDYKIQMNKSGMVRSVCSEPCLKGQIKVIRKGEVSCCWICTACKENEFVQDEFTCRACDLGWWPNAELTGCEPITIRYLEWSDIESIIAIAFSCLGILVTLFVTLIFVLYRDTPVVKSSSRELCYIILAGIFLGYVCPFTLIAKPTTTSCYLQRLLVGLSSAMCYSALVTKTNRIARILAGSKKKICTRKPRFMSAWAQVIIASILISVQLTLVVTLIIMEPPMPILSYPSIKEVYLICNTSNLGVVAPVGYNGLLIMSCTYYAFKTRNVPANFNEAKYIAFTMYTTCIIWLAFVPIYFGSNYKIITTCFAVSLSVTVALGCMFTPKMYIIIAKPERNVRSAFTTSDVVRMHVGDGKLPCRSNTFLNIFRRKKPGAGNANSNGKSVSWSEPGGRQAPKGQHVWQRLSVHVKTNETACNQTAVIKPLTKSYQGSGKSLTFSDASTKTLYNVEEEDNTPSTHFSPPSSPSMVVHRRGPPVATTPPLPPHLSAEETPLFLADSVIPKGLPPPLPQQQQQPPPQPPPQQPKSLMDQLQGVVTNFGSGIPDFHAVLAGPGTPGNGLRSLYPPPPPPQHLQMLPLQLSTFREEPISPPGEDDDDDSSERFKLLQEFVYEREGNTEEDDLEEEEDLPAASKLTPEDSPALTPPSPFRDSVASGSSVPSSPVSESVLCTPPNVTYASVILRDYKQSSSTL

No constants are given. Whether binding was seen depends on the method and setting. In cells and extracts the contact can be indirect. Some binding calls cover weakened binding; strength is not graded here.

The target in the test is β-arrestin2 (mouse (endogenous in brain tissue)) (UniProt Q91YI4). In words: co-IP; endogenous proteins; wild-type mouse cortex, hippocampus and cerebellum homogenised in 25 mM Tris, 150 mM NaCl, 1 mM EDTA, 1% Triton X-100; 1 mg lysate protein, anti-βarr2 antibody on protein A/G beads overnight at 4 °C; blot for mGluR1 or mGluR5.

For “metabotropic glutamate receptor 1 (mGlu1 receptor) (from UniProt P97772 21-1199)”, the binding entry was “binds”.
